Results are given in words; binding and its absence hold for the method and conditions named. Binding seen in cells or lysates may run through a third protein. Binding can be weak; no strength is given. Tags and fused reporters may be left off the sequences shown.
How the values were obtained:
[1] = target: T1, Flag-CLTA (clathrin light chain) (UniProt P09496); assay: co-IP; HEK 293T cells co-transfected with the plasmids, 24 h; lysed at 4°C in NP40 buffer; antibody on protein G Dynabeads (anti-Flag binding beads), washed in 0.02% PBST, eluted with 50 mM glycine pH 2.8; immunoblot
T1 sequence: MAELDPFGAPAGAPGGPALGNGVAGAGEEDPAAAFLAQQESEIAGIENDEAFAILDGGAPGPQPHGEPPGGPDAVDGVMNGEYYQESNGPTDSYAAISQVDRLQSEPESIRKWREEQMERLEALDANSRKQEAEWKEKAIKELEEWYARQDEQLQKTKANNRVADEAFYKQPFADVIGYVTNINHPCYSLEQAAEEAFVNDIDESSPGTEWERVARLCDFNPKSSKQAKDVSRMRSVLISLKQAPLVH

Flag-EPS15 = target: T2, Flag-EPS15 (UniProt P42566); assay: as above
T2 sequence: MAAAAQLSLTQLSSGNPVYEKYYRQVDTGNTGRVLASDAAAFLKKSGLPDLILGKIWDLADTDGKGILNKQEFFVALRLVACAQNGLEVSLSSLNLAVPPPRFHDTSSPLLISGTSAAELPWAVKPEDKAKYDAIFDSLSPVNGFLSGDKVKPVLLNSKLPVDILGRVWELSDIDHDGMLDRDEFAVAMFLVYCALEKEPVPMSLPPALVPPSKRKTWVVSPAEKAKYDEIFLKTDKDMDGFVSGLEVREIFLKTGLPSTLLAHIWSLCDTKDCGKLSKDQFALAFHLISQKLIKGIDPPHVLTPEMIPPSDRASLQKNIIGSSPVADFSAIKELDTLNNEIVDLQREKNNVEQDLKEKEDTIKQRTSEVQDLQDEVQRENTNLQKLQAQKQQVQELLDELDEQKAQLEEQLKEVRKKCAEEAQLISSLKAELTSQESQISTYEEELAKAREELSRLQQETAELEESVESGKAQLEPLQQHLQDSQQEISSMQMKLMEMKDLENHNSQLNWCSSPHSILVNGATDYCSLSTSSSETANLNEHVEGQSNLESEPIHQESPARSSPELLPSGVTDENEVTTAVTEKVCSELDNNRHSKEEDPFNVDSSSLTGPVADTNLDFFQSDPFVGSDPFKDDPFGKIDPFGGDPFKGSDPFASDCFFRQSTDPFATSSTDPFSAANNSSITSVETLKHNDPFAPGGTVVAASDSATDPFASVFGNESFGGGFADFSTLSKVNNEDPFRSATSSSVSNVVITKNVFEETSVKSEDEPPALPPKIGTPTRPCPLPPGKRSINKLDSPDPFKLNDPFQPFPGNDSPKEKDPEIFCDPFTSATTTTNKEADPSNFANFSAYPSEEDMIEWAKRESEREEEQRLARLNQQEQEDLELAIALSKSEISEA

With “HA-E (PEDV envelope protein) (porcine epidemic diarrhea virus (PEDV))” the binding [1] was “binds” and the binding (Flag-EPS15) was “binds”.

— PMC11852855
